# The supplement of paper PMC10849652
# Chains of the proteins cited; added tags and fusions are not shown. Lines headed by an entry give the natural chain unless they say otherwise; changes in a name come on top.
# UniProt Q01484: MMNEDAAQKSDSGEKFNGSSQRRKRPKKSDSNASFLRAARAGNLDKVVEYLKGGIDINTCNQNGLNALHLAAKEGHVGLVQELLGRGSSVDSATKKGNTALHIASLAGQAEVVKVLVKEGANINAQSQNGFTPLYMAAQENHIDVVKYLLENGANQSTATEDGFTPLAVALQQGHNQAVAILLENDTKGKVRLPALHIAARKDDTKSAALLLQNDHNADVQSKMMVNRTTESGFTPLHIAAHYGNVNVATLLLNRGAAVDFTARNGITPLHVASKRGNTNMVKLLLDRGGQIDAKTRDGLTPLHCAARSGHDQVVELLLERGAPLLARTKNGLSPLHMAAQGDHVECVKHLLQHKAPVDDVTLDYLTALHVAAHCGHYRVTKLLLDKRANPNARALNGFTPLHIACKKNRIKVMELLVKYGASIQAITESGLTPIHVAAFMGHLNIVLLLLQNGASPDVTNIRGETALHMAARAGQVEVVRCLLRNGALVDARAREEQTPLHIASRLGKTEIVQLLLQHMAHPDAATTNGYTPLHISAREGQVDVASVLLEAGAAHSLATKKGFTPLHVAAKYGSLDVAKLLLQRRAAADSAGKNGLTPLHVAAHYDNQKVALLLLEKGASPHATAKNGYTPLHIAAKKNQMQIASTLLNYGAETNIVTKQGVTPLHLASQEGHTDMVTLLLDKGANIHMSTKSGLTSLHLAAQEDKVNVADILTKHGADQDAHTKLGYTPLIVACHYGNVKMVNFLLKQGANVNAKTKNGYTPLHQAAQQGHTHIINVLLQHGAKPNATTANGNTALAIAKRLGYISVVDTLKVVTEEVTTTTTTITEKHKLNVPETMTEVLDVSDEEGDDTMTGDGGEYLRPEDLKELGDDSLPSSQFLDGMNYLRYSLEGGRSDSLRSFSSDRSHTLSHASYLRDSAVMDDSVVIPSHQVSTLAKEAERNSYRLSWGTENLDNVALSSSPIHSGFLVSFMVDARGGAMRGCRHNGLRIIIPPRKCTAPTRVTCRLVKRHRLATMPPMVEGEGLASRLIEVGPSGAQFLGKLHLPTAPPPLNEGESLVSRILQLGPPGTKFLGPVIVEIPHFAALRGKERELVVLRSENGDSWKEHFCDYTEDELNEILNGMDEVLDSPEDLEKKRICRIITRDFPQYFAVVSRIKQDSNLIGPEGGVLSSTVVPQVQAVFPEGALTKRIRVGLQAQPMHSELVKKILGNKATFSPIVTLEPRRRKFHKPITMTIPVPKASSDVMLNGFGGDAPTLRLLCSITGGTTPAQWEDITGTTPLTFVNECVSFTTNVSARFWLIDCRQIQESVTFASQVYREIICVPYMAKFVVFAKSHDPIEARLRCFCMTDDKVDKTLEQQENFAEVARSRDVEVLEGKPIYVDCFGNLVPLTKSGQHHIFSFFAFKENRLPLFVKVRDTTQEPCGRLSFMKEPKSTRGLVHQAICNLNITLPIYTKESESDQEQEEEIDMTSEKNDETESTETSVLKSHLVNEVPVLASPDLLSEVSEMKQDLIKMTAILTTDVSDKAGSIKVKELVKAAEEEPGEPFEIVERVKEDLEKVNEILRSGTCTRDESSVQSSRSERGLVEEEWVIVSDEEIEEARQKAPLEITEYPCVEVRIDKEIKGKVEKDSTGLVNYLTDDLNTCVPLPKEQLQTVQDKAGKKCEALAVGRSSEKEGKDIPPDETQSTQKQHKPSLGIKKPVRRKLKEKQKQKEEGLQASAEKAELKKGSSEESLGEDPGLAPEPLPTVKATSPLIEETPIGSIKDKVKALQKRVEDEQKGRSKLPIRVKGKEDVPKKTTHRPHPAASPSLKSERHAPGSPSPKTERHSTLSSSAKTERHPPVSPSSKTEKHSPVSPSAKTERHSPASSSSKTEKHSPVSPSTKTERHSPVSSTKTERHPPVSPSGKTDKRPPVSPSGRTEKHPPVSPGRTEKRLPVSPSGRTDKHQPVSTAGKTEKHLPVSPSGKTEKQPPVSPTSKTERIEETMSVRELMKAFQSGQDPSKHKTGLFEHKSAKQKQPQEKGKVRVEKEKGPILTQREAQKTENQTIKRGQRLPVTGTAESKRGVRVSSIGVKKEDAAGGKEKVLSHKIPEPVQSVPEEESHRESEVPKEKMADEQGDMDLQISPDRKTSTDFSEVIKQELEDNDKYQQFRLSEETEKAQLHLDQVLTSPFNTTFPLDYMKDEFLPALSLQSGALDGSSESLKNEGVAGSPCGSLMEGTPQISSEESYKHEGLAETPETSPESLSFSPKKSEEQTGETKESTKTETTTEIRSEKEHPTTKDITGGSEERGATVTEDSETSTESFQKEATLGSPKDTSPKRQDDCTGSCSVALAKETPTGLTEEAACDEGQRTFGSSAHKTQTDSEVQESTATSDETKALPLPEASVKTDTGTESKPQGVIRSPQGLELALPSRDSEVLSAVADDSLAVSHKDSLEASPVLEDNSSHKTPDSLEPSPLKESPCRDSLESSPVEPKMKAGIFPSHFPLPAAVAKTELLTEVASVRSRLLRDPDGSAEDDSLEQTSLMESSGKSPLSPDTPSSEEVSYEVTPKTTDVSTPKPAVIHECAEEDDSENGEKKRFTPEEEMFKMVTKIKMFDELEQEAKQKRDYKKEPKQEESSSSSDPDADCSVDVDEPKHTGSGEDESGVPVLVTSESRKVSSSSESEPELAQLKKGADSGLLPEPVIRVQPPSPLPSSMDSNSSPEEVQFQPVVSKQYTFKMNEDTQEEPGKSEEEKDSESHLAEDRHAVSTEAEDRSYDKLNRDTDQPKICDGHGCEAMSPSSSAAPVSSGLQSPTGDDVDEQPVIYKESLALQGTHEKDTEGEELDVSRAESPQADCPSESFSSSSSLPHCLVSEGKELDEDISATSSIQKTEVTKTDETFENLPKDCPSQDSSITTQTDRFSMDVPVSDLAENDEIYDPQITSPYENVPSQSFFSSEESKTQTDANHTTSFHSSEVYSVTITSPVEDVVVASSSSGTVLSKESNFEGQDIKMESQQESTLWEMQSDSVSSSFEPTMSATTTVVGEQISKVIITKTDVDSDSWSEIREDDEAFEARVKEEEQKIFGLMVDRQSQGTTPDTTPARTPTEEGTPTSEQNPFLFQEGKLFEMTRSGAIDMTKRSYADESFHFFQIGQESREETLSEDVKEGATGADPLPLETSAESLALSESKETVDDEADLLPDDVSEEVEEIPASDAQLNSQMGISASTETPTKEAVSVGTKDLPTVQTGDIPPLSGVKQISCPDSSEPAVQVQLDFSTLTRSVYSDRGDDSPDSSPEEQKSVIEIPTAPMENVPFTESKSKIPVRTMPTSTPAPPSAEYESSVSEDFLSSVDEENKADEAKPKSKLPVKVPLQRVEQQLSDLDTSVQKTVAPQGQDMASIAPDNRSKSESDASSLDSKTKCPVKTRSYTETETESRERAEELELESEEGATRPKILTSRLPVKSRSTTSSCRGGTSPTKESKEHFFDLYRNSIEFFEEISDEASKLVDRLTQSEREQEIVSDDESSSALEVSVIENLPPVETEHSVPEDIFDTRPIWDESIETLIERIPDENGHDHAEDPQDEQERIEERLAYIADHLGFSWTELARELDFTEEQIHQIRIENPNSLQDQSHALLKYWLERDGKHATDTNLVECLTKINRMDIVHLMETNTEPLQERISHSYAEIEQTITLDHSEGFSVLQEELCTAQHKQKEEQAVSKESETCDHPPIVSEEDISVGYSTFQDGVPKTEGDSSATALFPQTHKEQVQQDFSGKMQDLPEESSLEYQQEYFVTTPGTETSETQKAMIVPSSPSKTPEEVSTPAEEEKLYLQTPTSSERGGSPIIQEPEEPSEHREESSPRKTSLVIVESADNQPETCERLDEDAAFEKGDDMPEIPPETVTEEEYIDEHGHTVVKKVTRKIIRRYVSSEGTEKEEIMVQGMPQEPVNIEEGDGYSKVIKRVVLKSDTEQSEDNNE
# UniProt O43182: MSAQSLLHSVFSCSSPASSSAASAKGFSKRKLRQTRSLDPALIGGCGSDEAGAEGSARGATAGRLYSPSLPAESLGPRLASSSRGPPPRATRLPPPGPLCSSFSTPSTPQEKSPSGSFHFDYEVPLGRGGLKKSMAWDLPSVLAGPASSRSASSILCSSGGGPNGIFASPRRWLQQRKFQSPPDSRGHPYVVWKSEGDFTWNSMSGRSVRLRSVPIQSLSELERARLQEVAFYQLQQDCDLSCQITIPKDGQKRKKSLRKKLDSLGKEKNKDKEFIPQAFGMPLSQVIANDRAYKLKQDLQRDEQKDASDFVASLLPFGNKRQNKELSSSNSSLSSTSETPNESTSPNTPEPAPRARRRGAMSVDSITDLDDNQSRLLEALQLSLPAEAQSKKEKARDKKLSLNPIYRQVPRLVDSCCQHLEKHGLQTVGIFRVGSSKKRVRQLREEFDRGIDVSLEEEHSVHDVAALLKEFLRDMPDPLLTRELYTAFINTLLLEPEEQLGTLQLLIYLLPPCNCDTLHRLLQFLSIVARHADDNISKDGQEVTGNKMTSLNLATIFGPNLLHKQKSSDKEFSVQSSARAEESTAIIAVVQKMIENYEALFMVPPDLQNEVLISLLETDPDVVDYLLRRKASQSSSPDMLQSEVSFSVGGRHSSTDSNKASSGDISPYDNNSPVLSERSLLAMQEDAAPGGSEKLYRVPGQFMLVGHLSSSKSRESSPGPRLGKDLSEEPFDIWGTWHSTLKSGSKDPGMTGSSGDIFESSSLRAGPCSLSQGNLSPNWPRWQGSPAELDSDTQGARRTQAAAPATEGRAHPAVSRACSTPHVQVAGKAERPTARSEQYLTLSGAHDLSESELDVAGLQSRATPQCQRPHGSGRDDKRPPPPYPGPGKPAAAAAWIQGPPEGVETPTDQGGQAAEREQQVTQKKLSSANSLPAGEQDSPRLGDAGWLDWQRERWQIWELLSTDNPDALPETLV
# UniProt Q9BQD7: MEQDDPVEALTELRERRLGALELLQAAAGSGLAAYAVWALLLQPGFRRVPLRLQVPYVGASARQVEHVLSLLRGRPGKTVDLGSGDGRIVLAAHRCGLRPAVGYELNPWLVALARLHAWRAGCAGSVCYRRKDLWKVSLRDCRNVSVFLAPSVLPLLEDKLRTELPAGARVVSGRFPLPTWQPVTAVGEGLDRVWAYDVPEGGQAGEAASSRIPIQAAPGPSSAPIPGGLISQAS
# UniProt Q9HC16: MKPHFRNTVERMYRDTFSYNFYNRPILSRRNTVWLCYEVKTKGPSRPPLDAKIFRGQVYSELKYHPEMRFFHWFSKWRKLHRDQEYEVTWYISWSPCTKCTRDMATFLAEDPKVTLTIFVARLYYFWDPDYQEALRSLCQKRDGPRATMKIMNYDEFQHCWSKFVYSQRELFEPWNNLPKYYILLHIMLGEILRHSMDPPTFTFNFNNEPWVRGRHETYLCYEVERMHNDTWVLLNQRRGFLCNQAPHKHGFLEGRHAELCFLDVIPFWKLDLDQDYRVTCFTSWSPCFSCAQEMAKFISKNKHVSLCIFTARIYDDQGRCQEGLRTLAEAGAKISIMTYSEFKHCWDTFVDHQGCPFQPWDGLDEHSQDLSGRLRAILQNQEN
# UniProt Q9NWB6: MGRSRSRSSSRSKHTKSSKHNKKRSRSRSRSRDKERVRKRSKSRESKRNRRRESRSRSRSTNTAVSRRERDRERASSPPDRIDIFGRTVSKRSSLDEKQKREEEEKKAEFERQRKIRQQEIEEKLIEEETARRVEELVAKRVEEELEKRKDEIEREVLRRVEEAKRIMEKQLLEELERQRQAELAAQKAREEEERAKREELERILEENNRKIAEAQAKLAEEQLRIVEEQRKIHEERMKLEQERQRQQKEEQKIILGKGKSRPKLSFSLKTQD
# UniProt P02749: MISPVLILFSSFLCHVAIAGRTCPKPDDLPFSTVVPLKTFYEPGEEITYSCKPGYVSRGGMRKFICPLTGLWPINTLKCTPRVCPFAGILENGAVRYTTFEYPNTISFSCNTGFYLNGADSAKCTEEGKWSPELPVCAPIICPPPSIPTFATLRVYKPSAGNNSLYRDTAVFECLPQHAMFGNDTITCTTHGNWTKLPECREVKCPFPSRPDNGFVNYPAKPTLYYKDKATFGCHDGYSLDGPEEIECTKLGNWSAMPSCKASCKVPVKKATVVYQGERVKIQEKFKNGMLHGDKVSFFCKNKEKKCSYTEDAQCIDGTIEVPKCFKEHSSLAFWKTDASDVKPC
# UniProt Q96BI3, whole entry, looked up: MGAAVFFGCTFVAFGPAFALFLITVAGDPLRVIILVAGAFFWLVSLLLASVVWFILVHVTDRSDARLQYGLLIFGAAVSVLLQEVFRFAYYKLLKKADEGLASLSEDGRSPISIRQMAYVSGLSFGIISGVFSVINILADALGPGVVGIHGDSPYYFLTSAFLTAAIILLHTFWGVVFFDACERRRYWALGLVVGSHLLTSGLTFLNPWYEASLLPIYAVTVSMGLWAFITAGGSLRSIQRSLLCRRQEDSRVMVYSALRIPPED
# UniProt Q9Y587: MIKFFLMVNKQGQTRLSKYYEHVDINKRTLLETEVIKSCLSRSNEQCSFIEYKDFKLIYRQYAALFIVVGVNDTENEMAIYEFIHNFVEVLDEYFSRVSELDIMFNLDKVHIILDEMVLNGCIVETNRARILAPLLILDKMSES
# Some of the results follow.
# How the values were obtained:
# Experiment in all cases: log2 fold change, soluble protein after heating vs DMSO (PISA); higher = thermal stabilisation; K562 cells, 10 uM, 30 min; active = over 0.2 and 3.5 SD of the protein, either way, in both replicates (recomputed)
# [1] = compound: NC(=O)Nc1cc(-c2cccc(F)c2)sc1C(=O)N[C@H]1CCCNC1
# How it was run: (§1)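 Values are thermal stability changes relative to control samples and are taken from duplicates. They are stated as log2 fold changes. Before quantification by TMTpro 16plex LC-MS/MS with equalised channel sums, K562 cells at 2×10^6 cells/mL were treated with 10 μM compound for 30 min, heated in aliquots for 3 min across 48°C-58°C, pooled, extracted in PBS with 0.5% NP-40 at 4°C, and centrifuged at 21,000xg for 90 min to give the soluble supernatant.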
# [2] = compound: NC(=O)c1cnc(N[C@@H]2CCCC[C@@H]2N)nc1Nc1cccc(-n2nccn2)c1
# How it was run: as §1
# [3] = compound: NC1(c2ccc(-c3nc4ccn5c(=O)[nH]nc5c4cc3-c3ccccc3)cc2)CCC1
# How it was run: as §1
# [4] = compound: NCC(=O)Nc1ccc(-n2nc(C(F)(F)F)cc2-c2ccc3c(ccc4ccccc43)c2)cc1
# How it was run: as §1
# entinostat = compound: Nc1ccccc1NC(=O)c1ccc(CNC(=O)OCc2cccnc2)cc1 [entinostat]
# How it was run: as §1
# vorinostat = compound: O=C(CCCCCCC(=O)Nc1ccccc1)NO [vorinostat]
# How it was run: as §1
# silmitasertib = compound: O=C(O)c1ccc2c(c1)nc(Nc1cccc(Cl)c1)c1ccncc12 [silmitasertib]
# How it was run: as §1
# citarinostat = compound: O=C(CCCCCCNC(=O)c1cnc(N(c2ccccc2)c2ccccc2Cl)nc1)NO [citarinostat]
# How it was run: as §1
# [5] = compound: O=C1NC(=O)C(c2cnc3ccccn23)=C1c1cn2c3c(cc(F)cc13)CN(C(=O)N1CCCCC1)CC2
# How it was run: as §1
# [6] = compound: c1cc(OCCN2CCCCC2)cc(-c2n[nH]c3ccc(-c4nnc[nH]4)cc23)c1
# How it was run: as §1
Target,log2 fold change [1],log2 fold change [2],log2 fold change [3],log2 fold change [4],log2 fold change (entinostat),log2 fold change (vorinostat),log2 fold change (silmitasertib),log2 fold change (citarinostat),log2 fold change [5],log2 fold change [6]
ANKRD26 (UniProt Q9UPS8),inactive: 0.242,inactive: 0.08,inactive: 0.028,inactive: 0.007,inactive: -0.001,inactive: 0.053,inactive: -0.011,,,
ANXA3 (UniProt P12429),inactive: -0.03,inactive: -0.011,inactive: -0.108,inactive: -0.055,inactive: 0.008,inactive: -0.011,inactive: 0,inactive: 0.062,inactive: -0.091,inactive: -0.016
ANK2 (UniProt Q01484),inactive: -0.146,inactive: -0.196,inactive: -0.183,inactive: -0.16,inactive: 0.001,inactive: 0.134,inactive: -0.004,inactive: -0.104,,inactive: -0.019
ARHGAP6 (UniProt O43182),inactive: -0.197,inactive: -0.305,inactive: 0.169,,inactive: 0.036,,inactive: 0.445,inactive: -0.013,inactive: 0.225,inactive: -0.173
ANPEP (UniProt P15144),inactive: -0.123,inactive: 0.099,inactive: -0.11,,inactive: -0.025,inactive: 0.053,inactive: 0.025,,,
ANO10 (UniProt Q9NW15),inactive: -0.021,inactive: -0.049,inactive: -0.048,inactive: -0.018,inactive: 0.02,inactive: 0.021,inactive: -0.004,inactive: 0.053,inactive: -0.095,inactive: 0.009
ARHGEF7 isoform 5 (UniProt Q14155),inactive: -0.037,inactive: -0.035,inactive: 0.097,inactive: -0.045,inactive: 0.055,inactive: 0.106,inactive: 0.153,,inactive: 0.142,
AQR (UniProt O60306),inactive: -0.009,inactive: -0.02,inactive: -0.078,inactive: 0.23,inactive: -0.004,inactive: 0.002,inactive: 0.165,,inactive: 0.022,
ANK3 (UniProt Q12955),inactive: -0.156,inactive: 0.022,inactive: -0.01,inactive: 0.06,inactive: -0.056,inactive: -0.122,inactive: 0.068,inactive: -0.018,inactive: -0.066,inactive: -0.083
ANGPTL3 (UniProt Q9Y5C1),inactive: -0.277,inactive: 0.085,inactive: 0.165,inactive: -0.041,inactive: -0.289,,inactive: 0.125,inactive: 0.008,inactive: 0.061,inactive: 0.037
ANO6 isoform 2 (UniProt Q4KMQ2),inactive: -0.126,inactive: 0.009,inactive: -0.001,inactive: -0.035,inactive: 0,inactive: 0.042,inactive: -0.009,inactive: -0.051,inactive: -0.053,inactive: 0.003
AP1S2 (UniProt P56377),inactive: 0.027,inactive: -0.035,inactive: -0.074,,inactive: 0.039,inactive: 0.095,inactive: 0.12,inactive: 0.113,inactive: 0.111,inactive: 0.025
APOBR (UniProt Q0VD83),inactive: -0.044,inactive: -0.043,inactive: 0.009,inactive: 0.001,inactive: -0.068,inactive: -0.055,inactive: -0.043,inactive: -0.033,inactive: -0.056,inactive: -0.043
ANTKMT (UniProt Q9BQD7),inactive: -0.16,inactive: -0.168,,inactive: 0.041,inactive: -0.195,inactive: 0.034,,inactive: -0.057,inactive: -0.222,inactive: 0.062
APOBEC3G (UniProt Q9HC16),inactive: 0.046,inactive: 0.149,inactive: 0.061,inactive: -0.027,inactive: 0.026,,inactive: 0.116,inactive: 0.125,inactive: 0.202,inactive: -0.013
ARFIP2 (UniProt P53365),inactive: 0.1,inactive: 0.141,inactive: -0.244,inactive: 0.09,inactive: 0.14,inactive: 0.179,inactive: 0.029,inactive: 0.076,inactive: 0.043,inactive: -0.093
AP2M1 (UniProt C9JTK4),inactive: -0.07,inactive: -0.149,inactive: -0.111,inactive: -0.261,inactive: 0.043,,inactive: 0.116,inactive: -0.132,inactive: -0.267,inactive: 0.024
APEH (UniProt P13798),inactive: 0.014,inactive: 0.005,inactive: 0.022,inactive: 0.011,inactive: -0.017,inactive: -0.029,inactive: -0.007,inactive: 0.01,inactive: -0.02,inactive: -0.004
API5 (UniProt Q9BZZ5),inactive: 0.001,inactive: -0.006,inactive: -0.034,inactive: -0.013,inactive: -0.01,inactive: 0.05,inactive: -0.032,inactive: 0.048,inactive: -0.058,inactive: -0.054
APOBEC3D (UniProt Q96AK3),inactive: 0.012,inactive: -0.165,inactive: 0.151,inactive: 0.1,inactive: -0.011,,inactive: 0.167,inactive: -0.001,inactive: 0.179,inactive: -0.15
ARHGEF18 (UniProt Q6ZSZ5),inactive: 0.005,inactive: -0.074,inactive: -0.124,inactive: -0.061,inactive: -0.031,inactive: 0.057,inactive: 0.101,,inactive: 0,
APAF1 (UniProt O14727),inactive: 0.016,inactive: 0.033,inactive: -0.116,inactive: -0.104,inactive: 0.031,inactive: 0.048,inactive: -0.116,inactive: 0.093,inactive: -0.062,inactive: -0.016
APOC3 (UniProt P02656),inactive: 0.019,inactive: 0.181,inactive: 0.619,,inactive: -0.131,,inactive: -0.159,inactive: 0.177,inactive: 0.106,inactive: 0.066
ARGLU1 (UniProt Q9NWB6),inactive: -0.089,inactive: 0.01,inactive: 0.168,inactive: -0.08,inactive: -0.071,inactive: -0.061,inactive: -0.245,inactive: 0.026,inactive: 0.319,inactive: -0.208
APOD (UniProt P05090),inactive: 0.254,inactive: 0.38,inactive: 0.507,inactive: -0.104,inactive: -0.048,,inactive: -0.493,inactive: -0.2,,inactive: 1.18
APOH (UniProt P02749),inactive: -0.094,inactive: -0.109,inactive: -0.414,inactive: 0.065,inactive: 0.06,inactive: 0.354,inactive: 0.565,inactive: -0.149,,inactive: 0.006
APH1A (UniProt Q96BI3),inactive: -0.048,inactive: -0.201,inactive: -0.075,active: 0.303,inactive: 0.014,inactive: -0.024,inactive: 0.006,inactive: 0.055,,inactive: 0.085
ARF1 (UniProt P84077),inactive: 0.047,inactive: -0.017,inactive: -0.004,inactive: 0.048,inactive: -0.433,,inactive: 0.131,inactive: -0.085,inactive: -0.118,inactive: -0.145
ARHGEF12 (UniProt Q9NZN5),inactive: -0.132,inactive: -0.117,inactive: 0.085,inactive: -0.03,inactive: 0.019,,inactive: 0.034,,inactive: 0.035,
AP4S1 (UniProt Q9Y587),inactive: -0.014,inactive: 0.039,inactive: -0.11,inactive: 0.019,inactive: 0.062,,inactive: -0.005,inactive: 0.054,inactive: -0.092,inactive: 0.015

# Individual results from the list.
# log2 fold change [5], ANK3 (UniProt Q12955) reads inactive: -0.066
# log2 fold change (silmitasertib), ANGPTL3 (UniProt Q9Y5C1) reads inactive: 0.125
